In publication PMC3489907:
Positions count from the first letter of the chain named. For some assays here: No signal at the amounts used counts as a negative. For some assays here: At least one verdict was read from the data and is not stated in words by the source. For some assays here: Tags and fusion partners may be left off the protein sequences shown. For some assays here: A weaker result is weaker than the reference pair of the same experiment. For some assays here: Construct, isoform or probe ends are uncertain for at least one entry.

By UniProt entry, the sequences of proteins in these tests, tags left out. Where a name states a change or a piece, a line headed by the entry shows the natural chain unless it says otherwise.
UniProt P68739: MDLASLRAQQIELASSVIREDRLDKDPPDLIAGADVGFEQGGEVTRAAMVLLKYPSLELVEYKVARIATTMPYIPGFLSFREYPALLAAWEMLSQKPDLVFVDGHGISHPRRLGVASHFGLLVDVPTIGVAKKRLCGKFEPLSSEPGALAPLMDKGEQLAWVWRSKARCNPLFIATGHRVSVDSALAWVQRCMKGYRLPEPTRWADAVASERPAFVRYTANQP

Key:
Experiment in all cases: EMSA
[1] = molecular target: E. coli endoV (Escherichia coli) (UniProt P68739); settings: 5 mM Ca2+, smear, no distinct shift; EMSA: 10 fmol DNA in 10 µl, 5 ng pQE31 competitor DNA, 5 mM CaCl2, 10 mM HEPES-KOH pH 7.4, 1 mM DTT, 20% glycerol, 4°C 15 min; 10% native PAGE with 5 mM CaCl2 on ice; recombinant protein; residues 1-223; label: 5'-32P on strand 1
[2] = molecular target: T1, ENDOV WT (human endonuclease V, exon 10 isoform) (Homo sapiens) (UniProt Q8N8Q3); settings: 5 mM Ca2+, very weak and unspecific; EMSA: 10 fmol DNA in 10 µl, 5 ng pQE31 competitor DNA, 5 mM CaCl2, 10 mM HEPES-KOH pH 7.4, 1 mM DTT, 20% glycerol, 4°C 15 min; 10% native PAGE with 5 mM CaCl2 on ice; recombinant protein; residues 1-282; label: 5'-32P on strand 1
T1 sequence (looked up): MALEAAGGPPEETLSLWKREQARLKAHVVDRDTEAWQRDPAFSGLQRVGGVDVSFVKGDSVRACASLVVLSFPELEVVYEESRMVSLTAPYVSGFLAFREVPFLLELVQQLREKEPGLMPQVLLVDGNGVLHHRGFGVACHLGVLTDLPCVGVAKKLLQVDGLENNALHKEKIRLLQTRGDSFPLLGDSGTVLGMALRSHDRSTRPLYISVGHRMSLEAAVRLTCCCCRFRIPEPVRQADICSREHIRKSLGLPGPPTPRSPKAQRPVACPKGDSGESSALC

[3] = molecular target: T2, ENDOV-RK R248E,K249E (Homo sapiens) (UniProt Q8N8Q3); settings: 5 mM Ca2+, binding completely lost, EMSA: 10 fmol DNA in 10 µl, 5 ng pQE31 competitor DNA, 5 mM CaCl2, 10 mM HEPES-KOH pH 7.4, 1 mM DTT, 20% glycerol, 4°C 15 min, 10% native PAGE with 5 mM CaCl2 on ice, recombinant protein, residues 1-282, folded or branched DNA
T2 sequence (looked up): T1 sequence (looked up) with R248E, K249E

[4] = molecular target: T3, ENDOV-Wg (wedge mutant) P90G,Y91G,V92G,S93G (Homo sapiens) (UniProt Q8N8Q3); settings: 5 mM Ca2+, strongly compromised, EMSA: 10 fmol DNA in 10 µl, 5 ng pQE31 competitor DNA, 5 mM CaCl2, 10 mM HEPES-KOH pH 7.4, 1 mM DTT, 20% glycerol, 4°C 15 min, 10% native PAGE with 5 mM CaCl2 on ice, recombinant protein, residues 1-282, folded or branched DNA
T3 sequence (looked up): T1 sequence (looked up) with P90G, Y91G, V92G, S93G

[5] = molecular target: T4, ENDOV-Y91A (Homo sapiens) (UniProt Q8N8Q3); settings: 5 mM Ca2+, as WT, EMSA: 10 fmol DNA in 10 µl, 5 ng pQE31 competitor DNA, 5 mM CaCl2, 10 mM HEPES-KOH pH 7.4, 1 mM DTT, 20% glycerol, 4°C 15 min, 10% native PAGE with 5 mM CaCl2 on ice, recombinant protein, residues 1-282, folded or branched DNA
T4 sequence (looked up): T1 sequence (looked up) with Y91A

## CCGTAGAGCTACAGATCGGTCACCG (double strand) [undamaged dsDNA (1+2*)]
[1]
  binding result: binds more weakly
[2]
  binding result: binds more weakly

## GGATACGTAACAACGCTTATGCATCGCCGCCGCTACATCCCTGAGCTGAC / ATGCATAAGCGTTGTTACGTATCC / GTCAGCTCAGGGATGTAGCGGCGGAGTCATTCTGATCGAGATCGAACACA / TGTGTTCGATCTCGATCAGAATGA [fork (10+11+14*+15)]
[3]; label: 5'-32P on strand 3
  binding result: no binding
[4]; label: 5'-32P on strand 3
  binding result: binds more weakly
[5]; label: 5'-32P on strand 3
  binding result: binds

## GGATACGTAACAACGCTTATGCATCGCCGCCGCTACATCCCTGAGCTGAC / TGTGTTCGATCTCGATCAGAATGACGATGCATAAGCGTTGTTACGTATCC / GTCAGCTCAGGGATGTAGCGGCGGAGTCATTCTGATCGAGATCGAACACA [3-way junction (10*+13+14)]
[3]; label: 5'-32P on strand 1
  binding result: no binding
[4]; label: 5'-32P on strand 1
  binding result: binds more weakly
[5]; label: 5'-32P on strand 1
  binding result: binds

## CCGCTACCAGTGATCACCAATGGATTGCTAGGACATCTTTGCCCACCTGCAGGTTCACCC / TGGGTGAACCTGCAGGTGGGCAAAGATGTCCTAGCAATCCATTGTCTATGACGTCAAGCT / GAGCTTGACGTCATAGACAATGGATTGCTAGGACATCTTTGCCGTCTTGTCAATATCGGC / TGCCGATATTGACAAGACGGCAAAGATGTCCTAGCAATCCATTGGTGATCACTGGTAGCGG [Holliday junction (16+17*+18+19)]
[3]; label: 5'-32P on strand 2
  binding result: no binding
[4]; label: 5'-32P on strand 2
  binding result: binds more weakly
[5]; label: 5'-32P on strand 2
  binding result: binds

## GGATACGTAACAACGCTTATGCATCGCCGCCGCTACATCCCTGAGCTGAC / ATGCATAAGCGTTGTTACGTATCC / GTCAGCTCAGGGATGTAGCGGCGGAGTCATTCTGATCGAGATCGAACACA [3'-flap (10+11+14*)]
[3]; label: 5'-32P on strand 3
  binding result: no binding
[4]; label: 5'-32P on strand 3
  binding result: binds more weakly
[5]; label: 5'-32P on strand 3
  binding result: binds

## GGATACGTAACAACGCTTATGCATCGCCGCCGCTACATCCCTGAGCTGAC / TGTGTTCGATCTCGATCAGAATGACGATGCATAAGCGTTGTTACGTATCC [pseudo-Y (10*+13)]
[3]; label: 5'-32P on strand 1
  binding result: no binding
[4]; label: 5'-32P on strand 1
  binding result: binds more weakly
[5]; label: 5'-32P on strand 1
  binding result: binds

## GGATACGTAACAACGCTTATGCATCGCCGCCGCTACATCCCTGAGCTGAC / GTCAGCTCAGGGATGTAGCGGCGG / TGTGTTCGATCTCGATCAGAATGACGATGCATAAGCGTTGTTACGTATCC [5'-flap (10+12+13*)]
[3]; label: 5'-32P on strand 3
  binding result: no binding
[4]; label: 5'-32P on strand 3
  binding result: binds more weakly
[5]; label: 5'-32P on strand 3
  binding result: binds
